For five molecules, binding results are on record in doi:10.1101/2021.01.28.428596.

For assay [1], the target named is T1, RIR1-GFP (ProRIR1:RIR1-GFP in the rir1-1 mutant) (Arabidopsis thaliana) (UniProt C0LGG9).
T1 sequence: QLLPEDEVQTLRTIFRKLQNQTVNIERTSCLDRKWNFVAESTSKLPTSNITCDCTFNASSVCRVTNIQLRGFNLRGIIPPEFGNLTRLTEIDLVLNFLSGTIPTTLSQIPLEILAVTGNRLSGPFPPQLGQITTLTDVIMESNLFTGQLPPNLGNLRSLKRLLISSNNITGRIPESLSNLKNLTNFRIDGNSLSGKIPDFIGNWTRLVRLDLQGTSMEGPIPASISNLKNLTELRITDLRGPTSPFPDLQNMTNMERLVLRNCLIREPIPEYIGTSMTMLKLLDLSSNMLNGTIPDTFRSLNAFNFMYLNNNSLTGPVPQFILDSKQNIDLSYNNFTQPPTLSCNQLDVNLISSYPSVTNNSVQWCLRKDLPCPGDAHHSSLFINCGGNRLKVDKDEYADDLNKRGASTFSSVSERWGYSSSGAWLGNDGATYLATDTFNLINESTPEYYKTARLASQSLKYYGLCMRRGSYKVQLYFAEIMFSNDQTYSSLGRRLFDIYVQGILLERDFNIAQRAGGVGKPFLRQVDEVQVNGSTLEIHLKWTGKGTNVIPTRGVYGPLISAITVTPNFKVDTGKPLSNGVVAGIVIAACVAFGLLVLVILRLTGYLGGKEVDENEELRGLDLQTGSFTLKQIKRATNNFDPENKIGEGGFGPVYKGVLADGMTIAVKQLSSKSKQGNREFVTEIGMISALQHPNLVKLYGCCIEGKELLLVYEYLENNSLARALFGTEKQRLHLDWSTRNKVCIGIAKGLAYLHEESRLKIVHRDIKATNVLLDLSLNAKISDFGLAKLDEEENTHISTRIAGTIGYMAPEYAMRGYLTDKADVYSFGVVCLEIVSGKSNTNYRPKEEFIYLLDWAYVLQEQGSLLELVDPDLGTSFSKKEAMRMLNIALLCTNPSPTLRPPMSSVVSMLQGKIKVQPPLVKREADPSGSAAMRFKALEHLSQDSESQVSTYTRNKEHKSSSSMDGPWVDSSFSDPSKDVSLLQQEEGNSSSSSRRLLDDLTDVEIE
As to the kind of experiment: co-IP.

Assay [2] addresses T2, REMORIN-… RECEPTOR 1 (RIR1) cytoplasmic domain, yeast two-hybrid fusion (Arabidopsis thaliana) (UniProt C0LGG9).
T2 sequence: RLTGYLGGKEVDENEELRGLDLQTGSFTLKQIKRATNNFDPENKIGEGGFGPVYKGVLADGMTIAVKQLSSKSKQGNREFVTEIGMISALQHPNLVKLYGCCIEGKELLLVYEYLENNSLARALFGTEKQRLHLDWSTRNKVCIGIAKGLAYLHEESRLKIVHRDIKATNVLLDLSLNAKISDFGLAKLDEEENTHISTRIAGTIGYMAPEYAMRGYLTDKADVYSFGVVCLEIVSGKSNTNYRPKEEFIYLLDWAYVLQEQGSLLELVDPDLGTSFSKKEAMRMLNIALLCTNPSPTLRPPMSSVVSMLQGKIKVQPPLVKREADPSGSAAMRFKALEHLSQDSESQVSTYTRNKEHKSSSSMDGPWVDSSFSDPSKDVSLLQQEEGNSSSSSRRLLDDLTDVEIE
As to the kind of experiment: two-hybrid.

The target in assay [3] is YFP-REM1.2 (ProREM1.2:YFP-REM1.2 in the rem1.2 mutant) (Arabidopsis thaliana). The assay can be described thus: co-IP.

No constants are given. Whether binding was seen depends on the method and setting. Binding calls can cover weak binding; strength is not graded here. For some assays here: Where a sequence is shown, tags or fusion partners need not be part of it. For some assays here: Binding seen in cells or lysates may run through a third protein.

Take “mCherry-REM1.2 (ProREM1.2-mCherry-REM1.2 in rir1-1/RIR1-GFP#3) (Arabidopsis thaliana)”: the binding entry in assay [1] is “binds”.
Regarding “REM1.2^T41/T46A, yeast two-hybrid fusion (Arabidopsis thaliana)”, the binding result in assay [2] was “binds”.
In the case of “REM1.2^T70A, yeast two-hybrid fusion (Arabidopsis thaliana)”, the binding entry in assay [2] was “binds”.
Turning to “REM1.2^S11/S13/T18/T19A, yeast two-hybrid fusion (Arabidopsis thaliana)”, the binding entry in assay [2] is “no binding”.

B1: endogenous REM1.3 (protein, UniProt O80837 1-190)
chain: MAEEQKTSKVDVESPAVLAPAKEPTPAPVEVADEKIHNPPPVESKALAVVEKPIEEHTPKKASSGSADRDVILADLEKEKKTSFIKAWEESEKSKAENRAQKKISDVHAWENSKKAAVEAQLRKIEEKLEKKKAQYGEKMKNKVAAIHKLAEEKRAMVEAKKGEELLKAEEMGAKYRATGVVPKATCGCF
In the case of B1, the binding result in assay [3] is “binds”.
